Results reported in article PMC6494879, “Drug resistance emergence in macaques administered cabotegravir long-acting for pre-exposure prophylaxis during acute SHIV infection” (Nature Communications, 2019).
The source gives many values for each of these; only a part stands here.

Tested on: RT-SHIV
Test: Plasma SHIV RNA (RT-PCR) in RT-SHIV-infected macaques treated with CAB LA

## C[C@H]1CO[C@@H]2Cn3cc(C(=O)NCc4ccc(F)cc4F)c(=O)c(O)c3C(=O)N12 [CAB, cabotegravir]
Macaque 01D520, day 0
  SHIV RNA copies/ml: 49 copies/ml
Macaque 01D520, day 2
  SHIV RNA copies/ml: 24054 copies/ml
Macaque 01D520, day 4
  SHIV RNA copies/ml: 234571 copies/ml
Macaque 01D520, day 7
  SHIV RNA copies/ml: 2378294 copies/ml
Macaque 01D520, day 9
  SHIV RNA copies/ml: 13185480 copies/ml
Macaque 01D520, day 11
  SHIV RNA copies/ml: 9939004 copies/ml
Macaque 01D520, day 71
  SHIV RNA copies/ml: 74 copies/ml
Macaque 01D520, day 74
  SHIV RNA copies/ml: 10 copies/ml
Macaque 01D520, day 78
  SHIV RNA copies/ml: 49 copies/ml
Macaque 01D520, day 81
  SHIV RNA copies/ml: 49 copies/ml
Macaque 01D520, day 85
  SHIV RNA copies/ml: 121 copies/ml
Macaque 01D520, day 88
  SHIV RNA copies/ml: 115 copies/ml
Macaque 01D520, day 92
  SHIV RNA copies/ml: 68 copies/ml
Macaque 01D520, day 95
  SHIV RNA copies/ml: 49 copies/ml
Macaque 01D520, day 102
  SHIV RNA copies/ml: 49 copies/ml
Macaque 01D520, day 106
  SHIV RNA copies/ml: 74 copies/ml
Macaque 01D520, day 115
  SHIV RNA copies/ml: 3507 copies/ml
Macaque 01D520, day 120
  SHIV RNA copies/ml: 30409 copies/ml
Macaque 01D520, day 134
  SHIV RNA copies/ml: 3801 copies/ml
Macaque 01D520, day 143
  SHIV RNA copies/ml: 2184 copies/ml
Macaque 01D520, day 148
  SHIV RNA copies/ml: 4184 copies/ml
Macaque 01D520, day 155
  SHIV RNA copies/ml: 3234 copies/ml
Macaque 01D520, day 162
  SHIV RNA copies/ml: 3039 copies/ml
Macaque 01D520, day 170
  SHIV RNA copies/ml: 2400 copies/ml
Macaque 01D520, day 176
  SHIV RNA copies/ml: 908 copies/ml
Macaque 01D520, day 183
  SHIV RNA copies/ml: 9714 copies/ml
Macaque 01D520, day 190
  SHIV RNA copies/ml: 12824 copies/ml
Macaque 01D520, day 197
  SHIV RNA copies/ml: 16826 copies/ml
Macaque 01D520, day 204
  SHIV RNA copies/ml: 18749 copies/ml
Macaque 10D181, day 0
  SHIV RNA copies/ml: 49 copies/ml
Macaque 10D181, day 2
  SHIV RNA copies/ml: 34540 copies/ml
Macaque 10D181, day 4
  SHIV RNA copies/ml: 590862 copies/ml
Macaque 10D181, day 7
  SHIV RNA copies/ml: 3088710 copies/ml
Macaque 10D181, day 9
  SHIV RNA copies/ml: 8751291 copies/ml
Macaque 10D181, day 11
  SHIV RNA copies/ml: 4010088 copies/ml
Macaque 10D181, day 67
  SHIV RNA copies/ml: 66 copies/ml
Macaque 10D181, day 71
  SHIV RNA copies/ml: 336 copies/ml
Macaque 10D181, day 74
  SHIV RNA copies/ml: 374 copies/ml
Macaque 10D181, day 78
  SHIV RNA copies/ml: 128 copies/ml
Macaque 10D181, day 81
  SHIV RNA copies/ml: 966 copies/ml
Macaque 10D181, day 85
  SHIV RNA copies/ml: 187 copies/ml
Macaque 10D181, day 88
  SHIV RNA copies/ml: 72 copies/ml
Macaque 10D181, day 92
  SHIV RNA copies/ml: 188 copies/ml
Macaque 10D181, day 95
  SHIV RNA copies/ml: 112 copies/ml
Macaque 10D181, day 102
  SHIV RNA copies/ml: 5488 copies/ml
Macaque 10D181, day 106
  SHIV RNA copies/ml: 26903 copies/ml
Macaque 10D181, day 115
  SHIV RNA copies/ml: 50275 copies/ml
Macaque 10D181, day 120
  SHIV RNA copies/ml: 64049 copies/ml
Macaque 10D181, day 134
  SHIV RNA copies/ml: 56265 copies/ml
Macaque 10D181, day 143
  SHIV RNA copies/ml: 62966 copies/ml
Macaque 10D181, day 148
  SHIV RNA copies/ml: 84964 copies/ml
Macaque 10D181, day 155
  SHIV RNA copies/ml: 89398 copies/ml
Macaque 10D181, day 162
  SHIV RNA copies/ml: 97853 copies/ml
Macaque 10D181, day 170
  SHIV RNA copies/ml: 132357 copies/ml
Macaque 10D181, day 176
  SHIV RNA copies/ml: 167841 copies/ml
Macaque 10D181, day 183
  SHIV RNA copies/ml: 261543 copies/ml
Macaque 10D181, day 190
  SHIV RNA copies/ml: 245129 copies/ml
Macaque 10D181, day 197
  SHIV RNA copies/ml: 596247 copies/ml
Macaque 10D181, day 204
  SHIV RNA copies/ml: 1994912 copies/ml
Macaque 33996, day 0
  SHIV RNA copies/ml: 49 copies/ml
Macaque 33996, day 2
  SHIV RNA copies/ml: 837 copies/ml
Macaque 33996, day 4
  SHIV RNA copies/ml: 10458 copies/ml
Macaque 33996, day 7
  SHIV RNA copies/ml: 158776 copies/ml
Macaque 33996, day 9
  SHIV RNA copies/ml: 2056891 copies/ml
Macaque 33996, day 11
  SHIV RNA copies/ml: 1239140 copies/ml
Macaque 33996, day 67
  SHIV RNA copies/ml: 49 copies/ml
Macaque 33996, day 71
  SHIV RNA copies/ml: 344 copies/ml
Macaque 33996, day 74
  SHIV RNA copies/ml: 49 copies/ml
Macaque 33996, day 78
  SHIV RNA copies/ml: 49 copies/ml
Macaque 33996, day 81
  SHIV RNA copies/ml: 80 copies/ml
Macaque 33996, day 85
  SHIV RNA copies/ml: 49 copies/ml
Macaque 33996, day 88
  SHIV RNA copies/ml: 49 copies/ml
Macaque 33996, day 92
  SHIV RNA copies/ml: 21 copies/ml
Macaque 33996, day 95
  SHIV RNA copies/ml: 49 copies/ml
Macaque 33996, day 102
  SHIV RNA copies/ml: 49 copies/ml
Macaque 33996, day 106
  SHIV RNA copies/ml: 49 copies/ml
Macaque 33996, day 115
  SHIV RNA copies/ml: 1807 copies/ml
Macaque 33996, day 120
  SHIV RNA copies/ml: 669 copies/ml
Macaque 33996, day 134
  SHIV RNA copies/ml: 1829 copies/ml
Macaque 33996, day 143
  SHIV RNA copies/ml: 1935 copies/ml
Macaque 33996, day 148
  SHIV RNA copies/ml: 144 copies/ml
Macaque 33996, day 155
  SHIV RNA copies/ml: 101 copies/ml
Macaque 33996, day 162
  SHIV RNA copies/ml: 388 copies/ml
Macaque 33996, day 170
  SHIV RNA copies/ml: 49 copies/ml
Macaque 33996, day 176
  SHIV RNA copies/ml: 200 copies/ml
Macaque 33996, day 183
  SHIV RNA copies/ml: 49 copies/ml
Macaque 33996, day 190
  SHIV RNA copies/ml: 49 copies/ml
Macaque 33996, day 197
  SHIV RNA copies/ml: 559 copies/ml
